# According to patent US9469650B2, “Melampomagnolide B derivatives” (BOARD OF TRUSTEES OF THE UNIVERSITY OF ARKANSAS, priority 2013, dated 2016):
# The name of at least one read-out is uncertain.
# How the values were obtained:
# [1] = system: RXF 393; assay: panel of 60 human tumor cell lines, growth inhibition (Renal Cancer)
# [2] = system: A498; assay: as above
# [3] = system: HCT-116; assay: panel of 60 human tumor cell lines, growth inhibition (Colon Cancer)
# [4] = system: HOP-62; assay: panel of 60 human tumor cell lines, growth inhibition (Non-Small Cell Lung Cancer)
# [5] = system: A549/ATCC; assay: as above
# [6] = system: SNB-75; assay: panel of 60 human tumor cell lines, growth inhibition (CNS Cancer)
# [7] = system: SF-295; assay: as above
# [8] = system: COLO 205; assay: panel of 60 human tumor cell lines, growth inhibition (Colon Cancer)
# [9] = system: 786-0; assay: panel of 60 human tumor cell lines, growth inhibition (Renal Cancer)
# [10] = system: SN12C; assay: as above
# [11] = system: NCI-H322M; assay: panel of 60 human tumor cell lines, growth inhibition (Non-Small Cell Lung Cancer)
# [12] = system: SK-MEL-28; assay: panel of 60 human tumor cell lines, growth inhibition (Melanoma)
# [13] = system: HS 578T; assay: panel of 60 human tumor cell lines, growth inhibition (Breast Cancer); settings: HS 578T
# [14] = system: M14; assay: panel of 60 human tumor cell lines, growth inhibition (Melanoma)
# [15] = system: HCC-2998; assay: panel of 60 human tumor cell lines, growth inhibition (Colon Cancer)
# [16] = system: LOX IMVI; assay: panel of 60 human tumor cell lines, growth inhibition (Melanoma)
# [17] = system: SK-MEL-2; assay: as above
# [18] = system: OVCAR-5; assay: panel of 60 human tumor cell lines, growth inhibition (Ovarian Cancer)
# [19] = system: T-47D; assay: panel of 60 human tumor cell lines, growth inhibition (Breast Cancer)
# [20] = system: TK-10; assay: panel of 60 human tumor cell lines, growth inhibition (Renal Cancer)
# [21] = system: MDA-MB-468; assay: panel of 60 human tumor cell lines, growth inhibition (Breast Cancer)
compound,measurement,setting,value
C=C1C(=O)O[C@H]2[C@H]1CC/C(COC(=O)OCCCN1CCCCC1)=C\CC[C@@]1(C)O[C@@H]21 [JVM 2-26],Percent Growth,[1]; Log10 Concentration −4.0,−89%
same,Percent Growth,[1]; Log10 Concentration −5.0,−6%
same,Percent Growth,[1]; Log10 Concentration −6.0,83%
same,Percent Growth,[1]; Log10 Concentration −7.0,96%
same,Percent Growth,[1]; Log10 Concentration −8.0,97%
same,Percent Growth,[2]; Log10 Concentration −4.0,−99%
same,Percent Growth,[2]; Log10 Concentration −5.0,50%
same,Percent Growth,[2]; Log10 Concentration −6.0,78%
same,Percent Growth,[2]; Log10 Concentration −7.0,97%
same,Percent Growth,[2]; Log10 Concentration −8.0,86%
same,Percent Growth,[3]; Log10 Concentration −4.0,−100%
same,Percent Growth,[3]; Log10 Concentration −5.0,−20%
same,Percent Growth,[3]; Log10 Concentration −6.0,82%
same,Percent Growth,[3]; Log10 Concentration −7.0,95%
same,Percent Growth,[3]; Log10 Concentration −8.0,98%
same,Percent Growth,[4]; Log10 Concentration −4.0,−91%
same,Percent Growth,[4]; Log10 Concentration −5.0,82%
same,Percent Growth,[4]; Log10 Concentration −6.0,88%
same,Percent Growth,[4]; Log10 Concentration −7.0,69%
same,Percent Growth,[4]; Log10 Concentration −8.0,94%
same,Percent Growth,[5]; Log10 Concentration −4.0,−77%
same,Percent Growth,[5]; Log10 Concentration −5.0,81%
same,Percent Growth,[5]; Log10 Concentration −6.0,99%
same,Percent Growth,[5]; Log10 Concentration −7.0,97%
same,Percent Growth,[5]; Log10 Concentration −8.0,96%
same,Percent Growth,[6]; Log10 Concentration −4.0,−100%
same,Percent Growth,[6]; Log10 Concentration −5.0,28%
same,Percent Growth,[6]; Log10 Concentration −6.0,66%
same,Percent Growth,[6]; Log10 Concentration −7.0,613. %
same,Percent Growth,[6]; Log10 Concentration −8.0,83%
same,Percent Growth,[7]; Log10 Concentration −4.0,−70%
same,Percent Growth,[7]; Log10 Concentration −5.0,77%
same,Percent Growth,[7]; Log10 Concentration −6.0,90%
same,Percent Growth,[7]; Log10 Concentration −7.0,67%
same,Percent Growth,[7]; Log10 Concentration −8.0,93%
same,Percent Growth,[8]; Log10 Concentration −4.0,−88%
same,Percent Growth,[8]; Log10 Concentration −5.0,−74%
same,Percent Growth,[8]; Log10 Concentration −6.0,87%
same,Percent Growth,[8]; Log10 Concentration −7.0,96%
same,Percent Growth,[8]; Log10 Concentration −8.0,102%
same,Percent Growth,[9]; Log10 Concentration −4.0,−91%
same,Percent Growth,[9]; Log10 Concentration −5.0,4%
same,Percent Growth,[9]; Log10 Concentration −6.0,80%
same,Percent Growth,[9]; Log10 Concentration −7.0,87%
same,Percent Growth,[9]; Log10 Concentration −8.0,95%
same,Percent Growth,[10]; Log10 Concentration −4.0,−83%
same,Percent Growth,[10]; Log10 Concentration −5.0,46%
same,Percent Growth,[10]; Log10 Concentration −6.0,96%
same,Percent Growth,[10]; Log10 Concentration −7.0,100%
same,Percent Growth,[10]; Log10 Concentration −8.0,99%
same,Percent Growth,[11]; Log10 Concentration −4.0,−26%
same,Percent Growth,[11]; Log10 Concentration −5.0,73%
same,Percent Growth,[11]; Log10 Concentration −6.0,84%
same,Percent Growth,[11]; Log10 Concentration −7.0,67%
same,Percent Growth,[11]; Log10 Concentration −8.0,90%
same,Percent Growth,[12]; Log10 Concentration −4.0,−96%
same,Percent Growth,[12]; Log10 Concentration −5.0,22%
same,Percent Growth,[12]; Log10 Concentration −6.0,89%
same,Percent Growth,[12]; Log10 Concentration −7.0,92%
same,Percent Growth,[12]; Log10 Concentration −8.0,98%
same,Percent Growth,[13]; Log10 Concentration −4.0,−46%
same,Percent Growth,[13]; Log10 Concentration −5.0,34%
same,Percent Growth,[13]; Log10 Concentration −6.0,86%
same,Percent Growth,[13]; Log10 Concentration −7.0,91%
same,Percent Growth,[13]; Log10 Concentration −8.0,93%
same,Percent Growth,[14]; Log10 Concentration −4.0,−96%
same,Percent Growth,[14]; Log10 Concentration −5.0,23%
same,Percent Growth,[14]; Log10 Concentration −6.0,89%
same,Percent Growth,[14]; Log10 Concentration −7.0,92%
same,Percent Growth,[14]; Log10 Concentration −8.0,98%
same,Percent Growth,[15]; Log10 Concentration −4.0,−86%
same,Percent Growth,[15]; Log10 Concentration −5.0,75%
same,Percent Growth,[15]; Log10 Concentration −6.0,104%
same,Percent Growth,[15]; Log10 Concentration −7.0,96%
same,Percent Growth,[15]; Log10 Concentration −8.0,96%
same,Percent Growth,[16]; Log10 Concentration −4.0,−91%
same,Percent Growth,[16]; Log10 Concentration −5.0,7%
same,Percent Growth,[16]; Log10 Concentration −6.0,93%
same,Percent Growth,[16]; Log10 Concentration −7.0,93%
same,Percent Growth,[16]; Log10 Concentration −8.0,92%
same,Percent Growth,[17]; Log10 Concentration −4.0,−86%
same,Percent Growth,[17]; Log10 Concentration −5.0,57%
same,Percent Growth,[17]; Log10 Concentration −6.0,98%
same,Percent Growth,[17]; Log10 Concentration −7.0,104%
same,Percent Growth,[17]; Log10 Concentration −8.0,101%
same,Percent Growth,[18]; Log10 Concentration −4.0,−92%
same,Percent Growth,[18]; Log10 Concentration −5.0,51%
same,Percent Growth,[18]; Log10 Concentration −6.0,80%
same,Percent Growth,[18]; Log10 Concentration −7.0,81%
same,Percent Growth,[18]; Log10 Concentration −8.0,94%
same,Percent Growth,[19]; Log10 Concentration −4.0,−71%
same,Percent Growth,[19]; Log10 Concentration −5.0,−8%
same,Percent Growth,[19]; Log10 Concentration −6.0,84%
same,Percent Growth,[19]; Log10 Concentration −7.0,81%
same,Percent Growth,[19]; Log10 Concentration −8.0,91%
same,Percent Growth,[20]; Log10 Concentration −4.0,−100%
same,Percent Growth,[20]; Log10 Concentration −5.0,−16%
same,Percent Growth,[20]; Log10 Concentration −6.0,79%
same,Percent Growth,[20]; Log10 Concentration −7.0,92%
same,Percent Growth,[20]; Log10 Concentration −8.0,92%
same,Percent Growth,[21]; Log10 Concentration −4.0,−81%
same,Percent Growth,[21]; Log10 Concentration −5.0,−49%
same,Percent Growth,[21]; Log10 Concentration −6.0,39%
same,Percent Growth,[21]; Log10 Concentration −7.0,87%
same,Percent Growth,[21]; Log10 Concentration −8.0,95%
